These are yes or no findings as the source states them, for the method shown. In cells and extracts the contact can be indirect. Some entries that bind do so weakly or less than the wild type.

By UniProt entry, the sequences of proteins in these tests, tags left out. Where a name states a change or a piece, a line headed by the entry shows the natural chain unless it says otherwise. Chains listed by the source or under a name are the forms on record and can include a tag or linker. Residues count along the entry.
UniProt P43220, residues 24-463: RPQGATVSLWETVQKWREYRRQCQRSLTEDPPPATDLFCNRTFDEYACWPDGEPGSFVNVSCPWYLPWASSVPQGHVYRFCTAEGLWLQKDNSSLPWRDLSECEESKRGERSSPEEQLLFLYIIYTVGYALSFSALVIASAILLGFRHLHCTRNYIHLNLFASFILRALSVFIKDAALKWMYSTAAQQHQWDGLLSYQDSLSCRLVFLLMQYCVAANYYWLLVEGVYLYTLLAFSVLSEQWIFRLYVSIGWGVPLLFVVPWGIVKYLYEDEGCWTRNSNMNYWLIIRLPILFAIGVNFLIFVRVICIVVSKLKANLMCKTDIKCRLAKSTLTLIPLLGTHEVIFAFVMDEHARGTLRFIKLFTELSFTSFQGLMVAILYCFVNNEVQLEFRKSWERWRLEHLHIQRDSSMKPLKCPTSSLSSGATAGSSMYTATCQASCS
UniProt Q9Y2T5: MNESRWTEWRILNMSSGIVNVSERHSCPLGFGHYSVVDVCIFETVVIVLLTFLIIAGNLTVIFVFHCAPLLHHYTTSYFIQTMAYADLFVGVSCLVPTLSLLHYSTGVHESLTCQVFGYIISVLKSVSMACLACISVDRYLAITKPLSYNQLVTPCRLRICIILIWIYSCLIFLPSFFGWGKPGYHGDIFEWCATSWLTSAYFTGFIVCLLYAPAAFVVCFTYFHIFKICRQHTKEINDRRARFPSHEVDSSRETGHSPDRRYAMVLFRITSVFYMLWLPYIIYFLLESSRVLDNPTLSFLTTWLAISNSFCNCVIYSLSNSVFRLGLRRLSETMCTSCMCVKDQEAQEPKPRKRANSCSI
GPR52 ICL2-A mutant, receptor-RLuc8 (Q9Y2T5, form named): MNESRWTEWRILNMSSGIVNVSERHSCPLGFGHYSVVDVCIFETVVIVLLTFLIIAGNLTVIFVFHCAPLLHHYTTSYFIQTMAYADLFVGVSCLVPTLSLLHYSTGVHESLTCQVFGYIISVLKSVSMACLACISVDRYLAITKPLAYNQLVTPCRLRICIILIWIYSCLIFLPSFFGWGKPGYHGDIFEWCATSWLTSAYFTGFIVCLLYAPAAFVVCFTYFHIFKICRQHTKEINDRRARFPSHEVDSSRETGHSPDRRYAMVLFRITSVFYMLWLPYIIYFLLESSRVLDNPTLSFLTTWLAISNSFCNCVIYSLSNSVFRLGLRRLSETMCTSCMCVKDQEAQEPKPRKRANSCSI
GPR52 ICL2-D mutant, receptor-RLuc8 (Q9Y2T5, form named): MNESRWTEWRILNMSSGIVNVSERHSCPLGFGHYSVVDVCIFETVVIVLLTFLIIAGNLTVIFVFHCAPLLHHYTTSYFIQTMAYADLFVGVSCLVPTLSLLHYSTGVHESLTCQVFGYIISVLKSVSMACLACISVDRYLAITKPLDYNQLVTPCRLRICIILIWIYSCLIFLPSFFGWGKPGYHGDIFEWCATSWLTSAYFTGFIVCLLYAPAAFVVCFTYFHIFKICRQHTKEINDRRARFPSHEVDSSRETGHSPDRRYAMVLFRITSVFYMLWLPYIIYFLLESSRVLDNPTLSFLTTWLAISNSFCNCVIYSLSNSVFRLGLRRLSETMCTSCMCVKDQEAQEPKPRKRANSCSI

Holding throughout (experiment): FRET or BRET
Experiment [1] concerns the target GLP-1R, receptor-RLuc8 BRET biosensor (UniProt P43220).
For experiment [2], the target named is GPR52 S332A mutant, receptor-RLuc8 (human) (UniProt Q9Y2T5).
In experiment [3] the target is GPR52 (wild-type), receptor-RLuc8 BRET biosensor (human) (UniProt Q9Y2T5).
In experiment [4] the target is GPR52 ICL2-A mutant, receptor-RLuc8 (human) (UniProt Q9Y2T5).
Experiment [5] addresses GPR52 ICL2-D mutant, receptor-RLuc8 (human) (UniProt Q9Y2T5).

Take “β-arrestin2-GFP2 (from UniProt P32121 1-409)”: the binding result in experiment [1] and in experiment [2] was “binds” in each case.
With “β-arrestin1-GFP2 (from UniProt P49407 1-418)”, the binding result in experiment [1] is given as “binds”.

B1: β-arrestin1-GFP2 (natural protein)
chain: MGDKGTRVFKKASPNGKLTVYLGKRDFVDHIDLVDPVDGVVLVDPEYLKERRVYVTLTCAFRYGREDLDVLGLTFRKDLFVANVQSFPPAPEDKKPLTRLQERLIKKLGEHAYPFTFEIPPNLPCSVTLQPGPEDTGKACGVDYEVKAFCAENLEEKIHKRNSVRLVIRKVQYAPERPGPQPTAETTRQFLMSDKPLHLEASLDKEIYYHGEPISVNVHVTNNTNKTVKKIKISVRQYADICLFNTAQYKCPVAMEEADDTVAPSSTFCKVYTLTPFLANNREKRGLALDGKLKHEDTNLASSTLLREGANREILGIIVSYKVKVKLVVSRGGLLGDLASSDVAVELPFTLMHPKPKEEPPHREVPENETPVDTNLIELDTNDDDIVFEDFARQRLKGMKDDKEEEEDGTGSPQLNNR
Consider B1, for which the binding result in experiment [3], in experiment [4], in experiment [5] and in experiment [2] was “binds weakly” each time.
